Data as given in US20210214447A1.
No constants are given. Whether binding was seen depends on the method and setting. Some entries that bind do so weakly or less than the wild type.

Protein sequences, listed by entry. Tags and fused reporters are not part of them. Residues count along the entry.
UniProt P30530, residues 26-894: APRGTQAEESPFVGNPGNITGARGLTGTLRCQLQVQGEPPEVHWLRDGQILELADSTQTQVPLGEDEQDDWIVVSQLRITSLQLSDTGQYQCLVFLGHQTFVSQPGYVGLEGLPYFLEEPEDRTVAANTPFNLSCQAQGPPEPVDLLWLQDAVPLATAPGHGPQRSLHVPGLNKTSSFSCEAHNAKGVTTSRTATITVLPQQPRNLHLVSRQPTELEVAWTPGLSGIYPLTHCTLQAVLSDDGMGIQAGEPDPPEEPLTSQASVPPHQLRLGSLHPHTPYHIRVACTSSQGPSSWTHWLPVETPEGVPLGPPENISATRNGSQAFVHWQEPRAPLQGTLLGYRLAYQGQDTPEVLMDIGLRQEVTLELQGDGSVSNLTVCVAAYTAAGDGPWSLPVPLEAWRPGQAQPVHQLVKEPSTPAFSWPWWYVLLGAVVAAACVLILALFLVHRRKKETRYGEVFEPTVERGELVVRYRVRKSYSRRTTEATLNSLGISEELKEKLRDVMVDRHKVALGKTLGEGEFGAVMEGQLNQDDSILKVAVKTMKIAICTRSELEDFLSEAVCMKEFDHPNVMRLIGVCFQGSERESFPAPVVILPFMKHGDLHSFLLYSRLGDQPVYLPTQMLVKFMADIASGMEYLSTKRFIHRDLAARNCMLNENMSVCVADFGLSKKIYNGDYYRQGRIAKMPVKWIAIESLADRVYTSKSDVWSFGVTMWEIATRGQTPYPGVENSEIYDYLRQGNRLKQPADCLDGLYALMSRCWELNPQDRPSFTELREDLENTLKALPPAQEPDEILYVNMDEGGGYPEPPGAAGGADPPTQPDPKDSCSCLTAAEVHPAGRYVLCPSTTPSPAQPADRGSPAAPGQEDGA

Legend:
[1] = biological target: extracellular domain of human AXL protein (AXL-ECD) (human) (UniProt P30530); assay: ELISA, plate-coated AXL-ECD
[2] = biological target: human AXL on the surface of tumor cells (human) (UniProt P30530); assay: FACS on NCI-H1299 cells
[3] = biological target: human AXL on the surface of tumor cells (human) (UniProt P30530); assay: FACS on MDA-MB-231 cells
[4] = biological target: human AXL on the surface of tumor cells (human) (UniProt P30530); assay: summary of ELISA and FACS comparison with AXL107

Measured: binding

B1: mAb005c (antibody, V domains shown)
VH: QVQLQQSGPELVKPGASVKISCKASGYSFTSYYIHWVQQRPGQGLEWIGWIYPGSDNTKYNEKFKDKATLTADTSSGTAYMQLSSLTSDDSAVFYCARNYYDYDGGTWFPYWGQGTLVTVSA
VL: DIQMTQTTSSLSASLGDRVTISCRASQDINYYLNWYQQKPDGTVKLLIYYTSRLHSRVPSRFSGSGSGTDYSLTISNLEQEDIATYFCQQGNTLPWTFGGGTKLEIK
binds: all assays above

B2: mAb001c (antibody, V domains shown)
VH: AVQLQESGPSLVKPSQTLSLTCSVTGDSITSGYWSWIRKFPGNKLESMGYMTYSGATYYNPSLKSRISITRDTSKNQYYLQLNSVTPEDTATYYCARGGNSYFFDYWGQGTTLTVSS
VL: DIQMTQSPASLSVSVGETVTITCRASENIYSNLAWYQLKQGKSPHLLVYAATNLADGVPSRFSGSGSGTQYSLKIISLQSEDFGTYYCQHFWGTPLTFGAGTKLELK
binds: [1] | [2] | [3]
